Results taken from the supplement of paper PMC8728848.
Some of the results follow.

Experiments:
Assay in all cases: glycan array binding signal (z-score within array); higher = stronger binding
Settings in all cases: glycan notation: IUPAC condensed, linker removed
[1] = molecular target: GlcNAc(b1-3)Gal(b1-4)Glc
Method in brief: (§1)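 The binding signal is a Z-score computed within each array and averaged over linkers. Arrays of the same protein sequence at different concentrations or buffers were also averaged together. Data originate from 3228 arrays in the Consortium for Functional Glycomics database, kept only where the protein sequence was available.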

[2] = molecular target: GlcNAc(b1-3)Gal(b1-4)GlcNAc
Method in brief: as §1

[3] = molecular target: GlcNAc(b1-3)Gal(b1-4)GlcNAc(b1-3)Gal(b1-4)GlcNAc
Method in brief: as §1

[4] = molecular target: GlcNAc(b1-3)GalNAc
Method in brief: as §1

[5] = molecular target: GlcNAc(b1-3)Man
Method in brief: as §1

[6] = molecular target: GlcNAc(b1-3)[GlcNAc(b1-4)][GlcNAc(b1-6)]GlcNAc
Method in brief: as §1

[7] = molecular target: GlcNAc(b1-3)[GlcNAc(b1-6)]Gal(b1-4)GlcNAc
Method in brief: as §1

[8] = molecular target: GlcNAc(b1-3)[GlcNAc(b1-6)]GalNAc
Method in brief: as §1

[9] = molecular target: GlcNAc(b1-4)Gal(b1-4)GlcNAc
Method in brief: as §1

[10] = molecular target: GlcNAc(b1-4)GlcNAc
Method in brief: as §1

[11] = molecular target: GlcNAc(b1-4)GlcNAc(b1-4)GlcNAc
Method in brief: as §1

[12] = molecular target: GlcNAc(b1-4)GlcNAc(b1-4)GlcNAc(b1-4)GlcNAc(b1-4)GlcNAc
Method in brief: as §1

[13] = molecular target: GlcNAc(b1-4)GlcNAc(b1-4)GlcNAc(b1-4)GlcNAc(b1-4)GlcNAc(b1-4)GlcNAc
Method in brief: as §1

[14] = molecular target: GlcNAc(b1-4)[GlcNAc(b1-6)]GalNAc
Method in brief: as §1

[15] = molecular target: GlcNAc(b1-6)Gal(b1-4)GlcNAc
Method in brief: as §1

[16] = molecular target: GlcNAc(b1-6)GalNAc
Method in brief: as §1

[17] = molecular target: GlcNAc3Prop(b1-4)GlcNAc
Method in brief: as §1

[18] = molecular target: GlcNAc6S(b1-3)Gal(b1-4)GlcNAc
Method in brief: as §1

[19] = molecular target: Kdn(a2-3)Gal(b1-3)GalNAc
Method in brief: as §1

[20] = molecular target: Kdn(a2-3)Gal(b1-3)GlcNAc
Method in brief: as §1

[21] = molecular target: Kdn(a2-3)Gal(b1-4)Glc
Method in brief: as §1

[22] = molecular target: Kdn(a2-3)Gal(b1-4)GlcNAc
Method in brief: as §1

[23] = molecular target: Kdn(a2-3)Gal(b1-4)[Fuc(a1-3)]GlcNAc
Method in brief: as §1

[24] = molecular target: Kdn(a2-6)Gal(b1-4)GlcNAc
Method in brief: as §1

[25] = molecular target: Man(a1-2)Man(a1-2)Man(a1-3)Man
Method in brief: as §1

[26] = molecular target: Man(a1-2)Man(a1-2)Man(a1-6)[Man(a1-3)]Man
Method in brief: as §1

[27] = molecular target: Man(a1-2)Man(a1-3)Man
Method in brief: as §1

[28] = molecular target: Man(a1-2)Man(a1-3)[Man(a1-2)Man(a1-6)]Man
Method in brief: as §1

[29] = molecular target: Man(a1-2)Man(a1-3)[Man(a1-2)Man(a1-6)]Man(a1-6)[Man(a1-2)Man(a1-2)Man(a1-3)]Man
Method in brief: as §1

[30] = molecular target: Man(a1-2)Man(a1-3)[Man(a1-2)Man(a1-6)]Man(a1-6)[Man(a1-2)Man(a1-2)Man(a1-3)]Man(b1-4)GlcNAc(b1-4)GlcNAc
Method in brief: as §1

[31] = molecular target: Man(a1-2)Man(a1-3)[Man(a1-6)]Man(a1-6)[Man(a1-2)Man(a1-3)]Man(b1-4)GlcNAc(b1-4)GlcNAc
Method in brief: as §1

[32] = molecular target: Man(a1-2)Man(a1-6)[Man(a1-3)]Man(a1-6)[Man(a1-2)Man(a1-2)Man(a1-3)]Man
Method in brief: as §1

[33] = molecular target: Man(a1-2)Man(a1-6)[Man(a1-3)]Man(a1-6)[Man(a1-2)Man(a1-2)Man(a1-3)]Man(b1-4)GlcNAc(b1-4)GlcNAc
Method in brief: as §1

[34] = molecular target: Man(a1-3)[Man(a1-6)]Man
Method in brief: as §1

[35] = molecular target: Man(a1-3)[Man(a1-6)]Man(a1-6)[Man(a1-2)Man(a1-3)]Man(b1-4)GlcNAc(b1-4)GlcNAc
Method in brief: as §1

[36] = molecular target: Man(a1-3)[Man(a1-6)]Man(a1-6)[Man(a1-3)]Man
Method in brief: as §1

[37] = molecular target: Man(a1-3)[Man(a1-6)]Man(a1-6)[Man(a1-3)]Man(b1-4)GlcNAc(b1-4)GlcNAc
Method in brief: as §1

[38] = molecular target: Man(a1-3)[Man(a1-6)]Man(b1-4)GlcNAc(b1-4)GlcNAc
Method in brief: as §1

[39] = molecular target: Man(a1-6)Man
Method in brief: as §1

[40] = molecular target: Man(b1-4)GlcNAc
Method in brief: as §1

[41] = molecular target: Neu5Ac(a2-3)Gal
Method in brief: as §1

[42] = molecular target: Neu5Ac(a2-3)Gal(b1-3)GalNAc
Method in brief: as §1

[43] = molecular target: Neu5Ac(a2-3)Gal(b1-3)GalNAc(b1-3)Gal(a1-4)Gal(b1-4)Glc
Method in brief: as §1

[44] = molecular target: Neu5Ac(a2-3)Gal(b1-3)GalNAc(b1-4)[Neu5Ac(a2-3)]Gal(b1-4)Glc
Method in brief: as §1

[45] = molecular target: Neu5Ac(a2-3)Gal(b1-3)GalNAc(b1-4)[Neu5Ac(a2-8)Neu5Ac(a2-3)]Gal(b1-4)Glc
Method in brief: as §1

[46] = molecular target: Neu5Ac(a2-3)Gal(b1-3)GalNAc6S
Method in brief: as §1

[47] = molecular target: Neu5Ac(a2-3)Gal(b1-3)GlcNAc
Method in brief: as §1

[48] = molecular target: Neu5Ac(a2-3)Gal(b1-3)GlcNAc(b1-3)Gal(b1-3)GlcNAc
Method in brief: as §1

[49] = molecular target: Neu5Ac(a2-3)Gal(b1-3)GlcNAc(b1-3)Gal(b1-4)GlcNAc
Method in brief: as §1

[50] = molecular target: Neu5Ac(a2-3)Gal(b1-3)GlcNAc(b1-3)GalNAc
Method in brief: as §1

[51] = molecular target: Neu5Ac(a2-3)Gal(b1-3)GlcNAc6S
Method in brief: as §1

[52] = molecular target: Neu5Ac(a2-3)Gal(b1-3)[Fuc(a1-4)]GlcNAc
Method in brief: as §1

[53] = molecular target: Neu5Ac(a2-3)Gal(b1-3)[Fuc(a1-4)]GlcNAc(b1-3)Gal(b1-3)[Fuc(a1-4)]GlcNAc
Method in brief: as §1

[54] = molecular target: Neu5Ac(a2-3)Gal(b1-3)[Fuc(a1-4)]GlcNAc(b1-3)Gal(b1-4)[Fuc(a1-3)]GlcNAc
Method in brief: as §1

[55] = molecular target: Neu5Ac(a2-3)Gal(b1-3)[Neu5Ac(a2-3)Gal(b1-4)]GlcNAc
Method in brief: as §1

[56] = molecular target: Neu5Ac(a2-3)Gal(b1-3)[Neu5Ac(a2-6)]GalNAc
Method in brief: as §1

[57] = molecular target: Neu5Ac(a2-3)Gal(b1-4)Glc
Method in brief: as §1

[58] = molecular target: Neu5Ac(a2-3)Gal(b1-4)GlcNAc
Method in brief: as §1

[59] = molecular target: Neu5Ac(a2-3)Gal(b1-4)GlcNAc(b1-2)Man(a1-3)[GlcNAc(b1-2)Man(b1-4)GlcNAc(b1-2)Man(a1-6)]Man(b1-4)GlcNAc(b1-4)GlcNAc
Method in brief: as §1

[60] = molecular target: Neu5Ac(a2-3)Gal(b1-4)GlcNAc(b1-2)Man(a1-3)[Neu5Ac(a2-6)Gal(b1-4)GlcNAc(b1-2)Man(a1-6)]Man(b1-4)GlcNAc(b1-4)GlcNAc
Method in brief: as §1

[61] = molecular target: Neu5Ac(a2-3)Gal(b1-4)GlcNAc(b1-3)Gal
Method in brief: as §1

[62] = molecular target: Neu5Ac(a2-3)Gal(b1-4)GlcNAc(b1-3)Gal(b1-3)GlcNAc
Method in brief: as §1

[63] = molecular target: Neu5Ac(a2-3)Gal(b1-4)GlcNAc(b1-3)Gal(b1-4)GlcNAc
Method in brief: as §1

[64] = molecular target: Neu5Ac(a2-3)Gal(b1-4)GlcNAc(b1-3)Gal(b1-4)GlcNAc(b1-3)Gal(b1-4)GlcNAc
Method in brief: as §1

[65] = molecular target: Neu5Ac(a2-3)Gal(b1-4)GlcNAc(b1-3)Gal(b1-4)[Fuc(a1-3)]GlcNAc
Method in brief: as §1

B1: CD72 ectodomain (Homo sapiens), P21854 (protein)
chain: RYLQVSQQLQQTNRVLEVTNSSLRQQLRLKITQLGQSAEDLQGSRRELAQSQEALQVEQRAHQAAEGQLQACQADRQKTKETLQSEEQQRRALEQKLSNMENRLKPFFTCGSADTCCPSGWIMHQKSCFYISLTSKNWQESQKQCETLSSKLATFSEIYPQSHSYYFLNSLLPNGGSGNSYWTGLSSNKDWKLTDDTQRTRTYAQSSKCNKVHKTWSWWTLESESCRSSLPYICEMTAFRFPD
glycan array binding signal (z-score) [1]: 0.153
glycan array binding signal (z-score) [2]: -0.621
glycan array binding signal (z-score) [3]: -0.117
glycan array binding signal (z-score) [4]: -0.636
glycan array binding signal (z-score) [5]: -0.733
glycan array binding signal (z-score) [6]: -0.114
glycan array binding signal (z-score) [7]: 0.334
glycan array binding signal (z-score) [8]: 1.43
glycan array binding signal (z-score) [9]: 0.822
glycan array binding signal (z-score) [10]: -1.49
glycan array binding signal (z-score) [11]: 0.82
glycan array binding signal (z-score) [12]: -1.05
glycan array binding signal (z-score) [13]: -1.39
glycan array binding signal (z-score) [14]: -0.218
glycan array binding signal (z-score) [15]: -2.03
glycan array binding signal (z-score) [16]: -1.62
glycan array binding signal (z-score) [17]: 1.19
glycan array binding signal (z-score) [18]: 1.18
glycan array binding signal (z-score) [19]: 0.274
glycan array binding signal (z-score) [20]: -1.25
glycan array binding signal (z-score) [21]: 0.178
glycan array binding signal (z-score) [22]: 0.726
glycan array binding signal (z-score) [23]: 0.379
glycan array binding signal (z-score) [24]: -0.951
glycan array binding signal (z-score) [25]: -0.412
glycan array binding signal (z-score) [26]: 1.23
glycan array binding signal (z-score) [27]: 0.192
glycan array binding signal (z-score) [28]: -0.653
glycan array binding signal (z-score) [29]: 1.27
glycan array binding signal (z-score) [30]: -0.865
glycan array binding signal (z-score) [31]: 1.27
glycan array binding signal (z-score) [32]: -0.32
glycan array binding signal (z-score) [33]: 0.372
glycan array binding signal (z-score) [34]: -0.524
glycan array binding signal (z-score) [35]: -2.02
glycan array binding signal (z-score) [36]: 0.405
glycan array binding signal (z-score) [37]: 0.977
glycan array binding signal (z-score) [38]: -1.2
glycan array binding signal (z-score) [39]: -0.096
glycan array binding signal (z-score) [40]: 2.32
glycan array binding signal (z-score) [41]: -0.584
glycan array binding signal (z-score) [42]: -0.308
glycan array binding signal (z-score) [43]: 0.115
glycan array binding signal (z-score) [44]: -0.087
glycan array binding signal (z-score) [45]: -0.247
glycan array binding signal (z-score) [46]: 0.246
glycan array binding signal (z-score) [47]: 0.458
glycan array binding signal (z-score) [48]: -1.33
glycan array binding signal (z-score) [49]: 1.86
glycan array binding signal (z-score) [50]: -0.292
glycan array binding signal (z-score) [51]: 1.16
glycan array binding signal (z-score) [52]: -1.11
glycan array binding signal (z-score) [53]: 0.691
glycan array binding signal (z-score) [54]: -1.5
glycan array binding signal (z-score) [55]: 0.145
glycan array binding signal (z-score) [56]: -0.387
glycan array binding signal (z-score) [57]: 0.447
glycan array binding signal (z-score) [58]: -0.75
glycan array binding signal (z-score) [59]: 0.368
glycan array binding signal (z-score) [60]: 0.127
glycan array binding signal (z-score) [61]: 0.018
glycan array binding signal (z-score) [62]: 1.03
glycan array binding signal (z-score) [63]: -0.934
glycan array binding signal (z-score) [64]: -0.486
glycan array binding signal (z-score) [65]: -0.484
